Reference: PubChem BioAssay AID652272 (Drosophila RNAi Screening Center, 2013)
In all, the deposit lists about 21,000 reagents; shown is a random part of those with a known target gene and a result. In the full data, 503 (2.4%) were called active. 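Raw plate light values, not normalised; calls rest on replicate z-scores that were not deposited; hits include reporter decreases as well as increases.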 A number with no mark means an inactive call. Reagents against one gene are numbered here. Names joined by + are all predicted targets of the reagent. The record does not give: the amount of reagent, the time to read-out.

- Screen: 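Finding fly genes that regulate Hedgehog signal transduction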 (primary screen)
- System: Drosophila clone 8 (Cl8) cells
- Knock-down reagent: long dsRNA against Drosophila genes
- Detection: 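Plate reader light from a firefly reporter under a ptc promoter fragment that responds to Hedgehog, with Renilla light as transfection reference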
- Direction: firefly Hh reporter signal: higher = more ptc reporter light; Renilla reference signal: higher = more Renilla control light
- Call rule: 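Hit when the z-score averaged over two replicates is under -2 or over +3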
- Calls: active = hit: reporter lowered or raised; inactive = not a hit

Gene	reagent	firefly Hh reporter signal, replicate 1	firefly Hh reporter signal, replicate 2	Renilla reference signal, replicate 1	Renilla reference signal, replicate 2
AP-1sigma (Adaptor Protein complex 1, sigma subunit)	1	1.52e5	1.07e5	5794	3957
Dh44-R1 (Diuretic hormone 44 receptor 1)	1	1.04e5	91593	4785	3973
CG31544 (retired record)	1	1.58e5		3015	
CG17068	1	1.50e5	1.79e5	3250	4148
CG1113	1	68256	91819	2690	2513
Gr47b (Gustatory receptor 47b)	1	1.06e5	2.40e5	2944	8836
sav (salvador)	1	4.99e5	88627	26341	2826
sav (salvador)	2	4.63e5	75972	22998	2481
PNKP (Polynucleotide kinase 3'-phosphatase)	1	71868	1.36e5	2561	4045
Or85c (Odorant receptor 85c)	1	71313	1.48e5	3222	4088
sphe (spheroide)	1	1.08e5	1.26e5	1928	3019
Edg78E (Ecdysone-dependent gene 78E)	1	1.55e5	1.10e5	5269	3376
PyK (Pyruvate kinase)	1	6.62e5	1.76e5	28585	3987
Atu (Another transcription unit)	1	1.38e5	90406	4528	3707
CG32591	1	4.30e5	1.97e5	27225	4856
Pms2	1	1.03e5	84343	3652	3485
CG13692	1	1.21e5	99651	2821	2636
stum (stumble)	1	1.05e5	39755	2851	3462
stum (stumble)	2	79266	43904	2272	3904
CG32945	1	2.11e5		4388	
CG14563	1	1.26e5	93892	4281	3043
CG6813	1	68474	1.00e5	1506	4996
Vps8 (Vacuolar protein sorting 8)	1	53168	75996	6016	4317
CG31560	1	69528	1.03e5	2812	3200
CG8135 + BBIP1	1	1.19e5		2816	
CG8135 + BBIP1	2	61568	91492	1882	2470
CG13694	1	1.33e5	1.12e5	3244	2720
DIP-iota (Dpr-interacting protein iota)	1	77990	50741	1659	4720
CG11125	1	81552	43449	1968	4071
PIP82	1	69915	1.51e5	2020	6472
hpRNA:CR18854 (hairpin RNA:CR18854)	1	91879	49868	2274	4129
CG7382	1	56220	49287	2825	2811
Nepl13 (Neprilysin-like 13)	1	4.86e5	69283	24533	2333
Nha2 (Na[+]/H[+] hydrogen antiporter 2)	1	5.90e5	1.06e5	29069	3408
Nha2 (Na[+]/H[+] hydrogen antiporter 2)	2	82361	40048	3744	1907
Nha2 (Na[+]/H[+] hydrogen antiporter 2)	3	6.65e5	1.12e5	38108	3552
l(3)76BDm (lethal (3) 76BDm)	1	73625	1.04e5	3147	3991
CG10462	1	67869	34192	2525	1920
Rh5 (Rhodopsin 5)	1	57096	38128	2496	1674
